PubChem BioAssay AID652243 – Drosophila RNAi Screening Center, 2013
Aim: 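Fly regulators of androgen-dependent reporter output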 (primary screen). System: Drosophila S2R+ cells. Reagent: long dsRNA against Drosophila genes. Duration: 72 h (48 h, then 24 h hormone). Conditions: synthetic androgen R1881 at 10 nM for 24 h. Read-out: 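Per-well raw luminescence of the androgen-driven firefly reporter and of the Renilla control, two replicates each, without normalisation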. Reading the numbers: firefly reporter light: higher = more light from androgen-responsive reporter; Renilla control light: higher = more constitutive control signal (cell number, transfection). Call rule: 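Hit when the log firefly-to-Renilla ratio dropped or increased by a fixed fold versus the mean of GFP or LacZ controls across duplicate plates; lowering cut given as 1.5 and as 3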. Calls: active = hit: reporter lowered or raised; inactive = no hit.
The deposit covers about 24,000 reagents; this is a random part of those with a known target gene and a result. In the full data, 246 (1%) were called active. 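Plates not normalised; calls are printed but the firefly/Renilla ratio behind them is not deposited; fold cut for lowering reported inconsistently.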 The raw values are shown without normalisation. Reagents against one gene are numbered here. The record does not give: the amount of reagent.

lncRNA:CR33948 (GeneID 3772461) → firefly reporter light, replicate 1 = 9.55e5; firefly reporter light, replicate 2 = 8.50e5; Renilla control light, replicate 1 = 1.81e6; Renilla control light, replicate 2 = 1.83e6; outcome = inactive
Syx4 (GeneID 31269) #1 → firefly reporter light, replicate 1 = 4.22e5; firefly reporter light, replicate 2 = 3.65e5; Renilla control light, replicate 1 = 4.88e6; Renilla control light, replicate 2 = 4.66e6; outcome = inactive
Syx4 (GeneID 31269) #2 → firefly reporter light, replicate 1 = 2.01e5; firefly reporter light, replicate 2 = 2.33e5; Renilla control light, replicate 1 = 3.21e5; Renilla control light, replicate 2 = 5.61e5; outcome = inactive
CG13384 (GeneID 34160) → firefly reporter light, replicate 1 = 6.65e5; firefly reporter light, replicate 2 = 1.06e6; Renilla control light, replicate 1 = 1.78e6; Renilla control light, replicate 2 = 1.71e6; outcome = inactive
CG14456 (GeneID 40481) #1 → firefly reporter light, replicate 1 = 1.06e5; firefly reporter light, replicate 2 = 1.15e5; Renilla control light, replicate 1 = 1.34e6; Renilla control light, replicate 2 = 1.59e6; outcome = inactive
CG14456 (GeneID 40481) #2 → firefly reporter light, replicate 1 = 3.92e5; firefly reporter light, replicate 2 = 4.29e5; Renilla control light, replicate 1 = 2.78e5; Renilla control light, replicate 2 = 5.92e5; outcome = inactive
dyw (GeneID 31252) #1 → firefly reporter light, replicate 1 = 3.91e5; firefly reporter light, replicate 2 = 2.91e5; Renilla control light, replicate 1 = 4.26e6; Renilla control light, replicate 2 = 3.93e6; outcome = inactive
dyw (GeneID 31252) #2 → firefly reporter light, replicate 1 = 5.59e5; firefly reporter light, replicate 2 = 4.09e5; Renilla control light, replicate 1 = 9.64e5; Renilla control light, replicate 2 = 1.03e6; outcome = inactive
PPO3 (GeneID 44513) #1 → firefly reporter light, replicate 1 = 8.90e5; firefly reporter light, replicate 2 = 8.35e5; Renilla control light, replicate 1 = 1.19e6; Renilla control light, replicate 2 = 1.41e6; outcome = inactive
PPO3 (GeneID 44513) #2 → firefly reporter light, replicate 1 = 5.60e5; firefly reporter light, replicate 2 = 2.55e5; Renilla control light, replicate 1 = 4.64e5; Renilla control light, replicate 2 = 4.98e5; outcome = inactive
CR42532 (GeneID 8674101) → firefly reporter light, replicate 1 = 4.65e5; firefly reporter light, replicate 2 = 3.52e5; Renilla control light, replicate 1 = 1.75e6; Renilla control light, replicate 2 = 2.35e6; outcome = inactive
CG16736 (GeneID 41101) → firefly reporter light, replicate 1 = 755; firefly reporter light, replicate 2 = 404; outcome = inactive

Targets above whose target name starts with C or c:
CG13384 (GeneID 34160) → firefly reporter light, replicate 1 = 6.65e5; firefly reporter light, replicate 2 = 1.06e6; Renilla control light, replicate 1 = 1.78e6; Renilla control light, replicate 2 = 1.71e6; outcome = inactive
CG14456 (GeneID 40481) #1 → firefly reporter light, replicate 1 = 1.06e5; firefly reporter light, replicate 2 = 1.15e5; Renilla control light, replicate 1 = 1.34e6; Renilla control light, replicate 2 = 1.59e6; outcome = inactive
CG14456 (GeneID 40481) #2 → firefly reporter light, replicate 1 = 3.92e5; firefly reporter light, replicate 2 = 4.29e5; Renilla control light, replicate 1 = 2.78e5; Renilla control light, replicate 2 = 5.92e5; outcome = inactive
CR42532 (GeneID 8674101) → firefly reporter light, replicate 1 = 4.65e5; firefly reporter light, replicate 2 = 3.52e5; Renilla control light, replicate 1 = 1.75e6; Renilla control light, replicate 2 = 2.35e6; outcome = inactive
CG16736 (GeneID 41101) → firefly reporter light, replicate 1 = 755; firefly reporter light, replicate 2 = 404; outcome = inactive

More records follow:
CG14187 (GeneID 40199) #1 → firefly reporter light, replicate 1 = 2.44e5; firefly reporter light, replicate 2 = 1.66e5; Renilla control light, replicate 1 = 1.92e6; Renilla control light, replicate 2 = 1.87e6; outcome = inactive
CG14187 (GeneID 40199) #2 → firefly reporter light, replicate 1 = 4.04e5; firefly reporter light, replicate 2 = 3.33e5; Renilla control light, replicate 1 = 8.45e5; Renilla control light, replicate 2 = 8.09e5; outcome = inactive
bbg (GeneID 39583) #1 → firefly reporter light, replicate 1 = 2.48e5; firefly reporter light, replicate 2 = 2.39e5; Renilla control light, replicate 1 = 3.15e6; Renilla control light, replicate 2 = 3.03e6; outcome = inactive
bbg (GeneID 39583) #2 → firefly reporter light, replicate 1 = 99084; firefly reporter light, replicate 2 = 84382; Renilla control light, replicate 1 = 1.50e6; Renilla control light, replicate 2 = 1.21e6; outcome = inactive
bbg (GeneID 39583) #3 → firefly reporter light, replicate 1 = 3.79e5; firefly reporter light, replicate 2 = 4.45e5; Renilla control light, replicate 1 = 8.76e5; Renilla control light, replicate 2 = 1.03e6; outcome = inactive
bbg (GeneID 39583) #4 → firefly reporter light, replicate 1 = 4.34e5; firefly reporter light, replicate 2 = 3.75e5; Renilla control light, replicate 1 = 3.69e5; Renilla control light, replicate 2 = 3.98e5; outcome = inactive
CG34278 (GeneID 5740656) → firefly reporter light, replicate 1 = 8.18e5; firefly reporter light, replicate 2 = 6.83e5; Renilla control light, replicate 1 = 2.83e6; Renilla control light, replicate 2 = 1.72e6; outcome = inactive
p47 (GeneID 35674) → firefly reporter light, replicate 1 = 9.08e5; firefly reporter light, replicate 2 = 7.84e5; Renilla control light, replicate 1 = 2.39e6; Renilla control light, replicate 2 = 2.58e6; outcome = inactive
CG32855 (GeneID 318250) → firefly reporter light, replicate 1 = 64218; firefly reporter light, replicate 2 = 89896; Renilla control light, replicate 1 = 85184; Renilla control light, replicate 2 = 1.61e5; outcome = inactive
